Laboratory results from paper PMC9148072, “Design, Cytotoxicity and Antiproliferative Activity of 4-Amino-5-methyl-thieno[2,3-d]pyrimidine-6-carboxylates against MFC-7 and MDA-MB-231 Breast Cancer Cell Lines” (Molecules, 2022).

Tested on: MDA-MB-231 cell line
Assay: MTT antiproliferative assay, MDA-MB-231
Type: cell-based, human
Details: LEI = pIC50/HA
Method: The compounds were studied for antiproliferative activity by standard MTT dye-reduction assay. Cell cultures from MCF-10A, MCF-7 and MDAMB-231 cell lines were incubated for 72 h in the presence of the tested substances in a wide range of concentrations. At the MCF-10A and MDA-MB-231 cell lines, compound 4 was applied in the range from 0.5 to 100 µg/mL, and all others from 4 to 1000 µg/mL.
All breast cell lines (MCF-10A, MCF-7 and MDA-MB-231) were purchased from the American Type Culture Collection—ATCC (Manassas, VA, USA). The MCF-7 and MDA-MB-231 were cultivated in Dulbecco’s Modified Eagle’s Medium (DMEM) supplemented with 10% fetal bovine serum (FBS), 1% sodium pyruvate, 1% MEM nonessential amino acids (NEAA) without antibiotics. The nontumorigenic breast cell line (MCF-10A) was cultivated in DMEM medium (Sigma-Aldrich, St. Louis, MO, USA) supplemented with 10% FBS, 1% sodium pyruvate, 1% nonessential amino acids (NEAA), 20 ng/mL human epithelia growth factor (hEGF), 10 μg/mL insulin, and 0.5 μg/mL hydrocortisone without antibiotics. All cell lines were maintained in a humidified atmosphere with 5% CO2 at 37 °C.
Using the standard MTT dye-reduction assay, described by Mosmann the antiproliferative activity was tested. The method is based on the metabolism of the tetrazolium salt MTT to insoluble formazan. The formazan absorption was registered using a microplate reader at λ = 540 nm. The measured absorption is an indicator of cell viability and metabolic activity. Antiproliferative activities were expressed as IC50 values (concentrations required for 50% inhibition of cell growth), calculated using nonlinear regression analysis (GraphPad Software, San Diego, CA, USA).

CCOC(=O)c1sc2nc(CCn3c(=N)[nH]c4ccccc43)[nH]c(=O)c2c1C [B, reference compound]
LEI in MDA-MB-31 test: 0.28

CCOC(=O)c1sc2nc(Cc3ccccc3)nc(N)c2c1C [Compound 2, Ethyl 4-Amino-2-benzyl-5-methyl-thieno[2,3-d]pyrimidine-6-carboxylate]
LEI in MDA-MB-31 test: 0.346

CCOC(=O)c1sc2nc(Cc3ccc([N+](=O)[O-])cc3)nc(N)c2c1C [Compound 3, Ethyl 4-Amino-5-methyl-2-(4-nitrobenzyl) Thieno [2,3-d] Pyrimidine-6-carboxylate]
LEI in MDA-MB-31 test: 0.269

CCOC(=O)c1sc2nc(-c3cc(OC)c(OC)c(OC)c3)nc(N)c2c1C [Compound 4, Ethyl 4-Amino-5-methyl-2-(3,4,5-trimethoxyphenyl)thieno [2,3-d]Pyrimidine-6-carboxylate]
LEI in MDA-MB-31 test: 0.286

CCOC(=O)c1sc2nc(-c3ccncc3)nc(N)c2c1C.Cl [Compound 6, Ethyl 4-Amino-5-methyl-2-(pyridin-4-yl)thieno[2,3-d]pyrimidine-6-carboxylate hydrochloride]
LEI in MDA-MB-31 test: 0.318
